The values below come from paper PMC4342170.

By UniProt entry, the sequences of proteins in these tests, tags left out.
UniProt P40763, whole entry: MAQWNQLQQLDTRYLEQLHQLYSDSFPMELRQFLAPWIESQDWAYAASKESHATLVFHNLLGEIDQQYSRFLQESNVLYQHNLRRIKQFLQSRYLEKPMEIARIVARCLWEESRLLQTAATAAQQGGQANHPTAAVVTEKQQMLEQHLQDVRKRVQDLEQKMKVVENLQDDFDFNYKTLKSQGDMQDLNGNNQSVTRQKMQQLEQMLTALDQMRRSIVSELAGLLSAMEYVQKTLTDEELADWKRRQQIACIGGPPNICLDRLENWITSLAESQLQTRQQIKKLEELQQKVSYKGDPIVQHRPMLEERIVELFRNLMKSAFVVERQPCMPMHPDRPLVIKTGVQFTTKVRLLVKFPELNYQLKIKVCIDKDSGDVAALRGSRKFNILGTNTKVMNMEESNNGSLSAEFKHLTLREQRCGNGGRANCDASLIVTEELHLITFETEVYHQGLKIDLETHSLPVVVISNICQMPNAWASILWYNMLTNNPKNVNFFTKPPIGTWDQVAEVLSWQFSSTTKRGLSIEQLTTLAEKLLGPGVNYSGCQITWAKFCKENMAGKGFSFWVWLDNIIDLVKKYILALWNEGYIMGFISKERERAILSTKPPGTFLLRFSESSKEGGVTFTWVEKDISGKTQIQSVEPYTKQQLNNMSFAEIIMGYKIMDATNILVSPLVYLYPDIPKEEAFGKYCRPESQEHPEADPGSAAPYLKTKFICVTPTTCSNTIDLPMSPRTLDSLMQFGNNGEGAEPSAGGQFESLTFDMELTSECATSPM

The exact form of at least one protein or probe is not confirmed. At least one result comes from cells or an extract, where the contact may be indirect. Negatives hold for the conditions tested.

The data set concerns the target STAT3 (Homo sapiens (1.1B4 pancreatic beta cells)) (UniProt P40763). Nature of the data set: competition with a labelled probe. Conditions: 100x unlabeled M1 against labeled probe 1, IL-6 + Dx nuclear extract; 10 mM HEPES pH 7.8, 50 mM KCl, 5 mM MgCl2, 1 mM EDTA, 10% glycerol, 5 mM DTT, 1 mg/mL BSA, 0.7 mM PMSF, 50 ng/uL poly(dI-dC), room temperature; 4% native acrylamide gel; protein in an extract; label: none (unlabeled competitor).

Consider “AGTGTGCAGTAGGAAAAGGCTCATA (double strand) [probe M1]”, for which the binding result is “no binding”.
